Source: PubChem BioAssay AID2685 (National Center for Advancing Translational Sciences (NCATS), 2010)
Some of the results follow. The main result of the screen is listed elsewhere. These columns were measured beside it and carry no call. Compounds called inactive in the main read-out are mostly missing here. Potencies come from curve fits of mixed quality, noted in brackets.

Assay: qHTS Assay for Lipid Storage Modulators in Drosophila S3 Cells;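 on cell number change: cells counted by Cell Tracker Red CMTPX staining in the red channel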
Conditions: BODIPY lipid droplet fluorescence, 18-24 h; for cell number change: measured here: cell count max response, cells fed with added oleic acid
How it was run: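 Laser-scanning cytometry quantifies lipid droplet accumulation (500–530 nm total intensity; droplet/cell object ratio) in oleic acid-fed (400 uM added) Drosophila S3 cells treated with a concentration series. 20 uM Triacsin C defined 100% inhibition.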

[1] = measured here: lipid fluorescence (Fed channel) AC50, cells fed with added oleic acid
[2] = measured here: cell number channel AC50, cells fed with added oleic acid

Structure (SMILES)	cell number change [%]	AC50 [1]	AC50 [2]
O=C(C1=C(O)C(=O)N(CC2CCCO2)C1c1ccccc1)c1ccco1 (stereo not drawn)	10.5	3.55 µM [falling, single point]	–
O=C(NN=C1CCCC1)NC1CCCCC1	126	–	18.4 µM [rising, single point]
CCN1CCN(CC(=O)c2cc(OC)c(OC)c(OC)c2)CC1	-12.1	–	6.51 µM [falling, single point]
Cc1cccc(/C(N)=N/OC(=O)c2cccc3ccccc23)c1	-10.5	–	–
CCCCNS(=O)(=O)c1ccc(OCC(=O)OC)cc1	-0.244	6.51 µM [falling, single point]	–
Cc1ccc(C)c(S(=O)(=O)NC(CC(C)C)C(=O)O)c1 (stereo not drawn)	–	18.4 µM [rising, partial curve]	–
Cc1ccc(C(OC(=O)c2ccco2)C(=O)NCc2cccs2)cc1 (stereo not drawn)	9.16	0.326 µM [rising, full curve, poor fit]	–
CCc1ccc(NC(=O)COc2ccc(/C=C(/C#N)c3nc4ccccc4[nH]3)cc2OC)cc1	-68.8	1.46 µM [falling, full curve]	1.46 µM [falling, full curve]
O=C(Nc1nccs1)c1nc(-c2ccccc2)n(-c2ccccc2)n1	-10.3	29.1 µM [rising, single point]	–
COc1ccc(OC)c(NC(=S)N(CCc2c(C)[nH]c3ccc(C)cc23)Cc2cccs2)c1	11.7	–	–
O=C(N=C1SCC(=O)N1c1ccccc1)c1ccco1	65.3	–	18.4 µM [rising, partial curve]
O=C(Nc1ccc(C(=O)O)cc1)Nc1cccc2ccccc12	-12.4	0.231 µM [rising, full curve, poor fit]	–
Cn1c(=O)oc2cc(S(=O)(=O)NCc3ccc(C(=O)O)cc3)ccc21	-14.7	3.66 µM [falling, full curve]	–
C(=C\c1ccccn1)/c1ccncc1	15.4	0.58 µM [rising, full curve, poor fit]	–
O=C(Nc1cccnc1)/C(N=Nc1c(Cl)cccc1Cl)=C(\O)c1ccccc1	30.3	0.326 µM [rising, single point]	29.1 µM [rising, single point]
CC(CC(=O)Nc1ccc2c(c1)OCO2)c1ccccc1 (stereo not drawn)	-9.12	–	–
O=C1Nc2cc(Cl)c(Cl)cc2N(O)N1c1ccc(Cl)c(Cl)c1	-44.3	18.4 µM [rising, single point]	29.1 µM [falling, single point]
CCCC(C)C(=O)Nc1ccc(F)c(Cl)c1 (stereo not drawn)	-2.94	–	6.51 µM [falling, single point]
CNc1nc(Oc2ccc(=O)n(C)n2)nc(N2CCOCC2)n1	-37.5	0.259 µM [falling, full curve, poor fit]	36.6 µM [falling, single point]
COc1cccc(Nc2nc(-c3sc(C)nc3C)cs2)c1	-61.4	–	–
Cc1cccc(C)c1OCc1cc(C(=O)N2CCN(c3ccccc3)CC2C)no1 (stereo not drawn)	–	–	0.00517 µM [rising, full curve, poor fit]

Single records, as listed above. Order of values: cell number change [%]	AC50 [1]	AC50 [2]
CCCC(C)C(=O)Nc1ccc(F)c(Cl)c1 (stereo not drawn) is listed as -2.94	–	6.51 µM [falling, single point]
O=C(Nc1cccnc1)/C(N=Nc1c(Cl)cccc1Cl)=C(\O)c1ccccc1 is listed as 30.3	0.326 µM [rising, single point]	29.1 µM [rising, single point]
Cc1ccc(C(OC(=O)c2ccco2)C(=O)NCc2cccs2)cc1 (stereo not drawn) is listed as 9.16	0.326 µM [rising, full curve, poor fit]	–
CCCCNS(=O)(=O)c1ccc(OCC(=O)OC)cc1 is listed as -0.244	6.51 µM [falling, single point]	–

More compounds:

Structure (SMILES)	cell number change [%]	AC50 [1]	AC50 [2]
COc1ccccc1C(=O)Nc1ccnn1C1CCN(C(=O)C2CCOC2)CC1 (stereo not drawn)	-56.1	2.31 µM [falling, partial curve]	32.6 µM [falling, partial curve, poor fit]
O=C(/C=C/c1ccc(Cl)cc1)Nc1ccccc1N1CCOCC1	16.7	–	5.17 µM [falling, single point]
Cc1cc(C)cc(OCC(=O)OCC(=O)N(C)CC(=O)Nc2ccc(F)cc2)c1	-34.4	4.61 µM [falling, partial curve]	5.17 µM [falling, full curve, poor fit]
COC(=O)c1ccc(NC(=O)CSCc2ccccc2)cc1	-47.3	–	29.1 µM [falling, single point]
CCNc1ccc(S(=O)(=O)N(C)C)cc1NCC(=O)Nc1ccccc1Cl	11.9	–	–
Cc1cc(OCC(=O)N2CCc3ccccc3C2)c2c(-c3ccccc3)cc(=O)oc2c1	–	6.51 µM [rising, partial curve, poor fit]	6.51 µM [rising, single point]
CCCc1nn(C)c(C(=O)Nc2cccc(CC)c2)c1Cl	-48.7	2.91 µM [falling, partial curve]	18.4 µM [falling, single point]
O=C(c1cc2c(s1)-c1ccccc1S(=O)(=O)C2)N1CCCC1	19	–	0.082 µM [rising, full curve, poor fit]
CC(C)c1nnc(NC(=O)CSc2nnc(NC(=O)c3c(F)cccc3F)s2)s1	7.67	0.58 µM [falling, single point]	0.651 µM [falling, single point]
O=C(CCCN1C(=O)c2ccccc2C1=O)Nc1cccc(S(=O)(=O)NC2=NCCC2)c1	137	–	13 µM [rising, partial curve]
O=C(COC(=O)c1ccc(Cl)nc1)c1ccc2c(c1)OCCO2	-20.9	–	0.103 µM [falling, full curve, poor fit]
CCSc1ccccc1C(=O)NCc1ccc2c(c1)OCO2	6.76	–	–
CCOC(=O)N/N=C/C(Cl)=C/c1ccccc1	27.7	–	–
COc1cc(NC(=O)CSc2nc(C)c(C)c(C)n2)cc(OC)c1	9.28	–	–
Nc1nc(NC(=O)c2ccco2)nn1-c1ccccc1	3.64	0.116 µM [falling, full curve]	–
Cc1nc(-c2ccccc2)sc1-c1nc(-c2cccnc2)ncc1S(=O)(=O)c1ccccc1	12.2	–	–
CC(C)[C@H](NC(=O)N1c2ccccc2NC(=O)[C@@H]1C(C)C)C(=O)N[C@@H](C(=O)O)c1ccccc1	–	29.1 µM [rising, single point]	–
O=C(COC(=O)c1ccc(NC(=O)C2CC=CCC2C(=O)O)cc1)c1ccccc1 (stereo not drawn)	-9.15	–	–
COc1ccc(-n2nc([N+](=O)[O-])c(=NCCC3=CCCCC3)n2O)cc1	18.6	1.16 µM [rising, single point]	–
Cc1oc(-c2ccccc2F)nc1CS(=O)(=O)CC(=O)NC1CCCC1	–	20.6 µM [rising, single point]	–
CCOc1cc(C=C(C#N)C#N)ccc1Oc1ccc([N+](=O)[O-])cn1	-31.4	13 µM [falling, single point]	14.6 µM [falling, single point]

Structure (SMILES)	cell number change [%]	AC50 [1]	AC50 [2]
COC(=O)c1sccc1NC(=O)c1ccc(C#N)cc1	0.236	0.731 µM [falling, single point]	–
COc1ccc(S(=O)(=O)Nc2ccccc2C(=O)N2CCCC2)cc1C	-9.91	2.91 µM [rising, single point]	–
Cc1cc(NS(=O)(=O)Cc2ccccc2)cc(C)c1OCC(=O)N1CCOCC1	-14.5	29.1 µM [falling, partial curve, poor fit]	–
Cc1ccc2nc(C3CCCCC3)[nH]c2c1	-7.14	29.1 µM [falling, single point]	–
CCN(CC)c1ccc(NC(=O)COc2ccccc2C#N)cc1S(=O)(=O)Nc1ccccc1OC	6.14	–	–
Cc1ccc(N2C(=O)C(O)(C(F)(F)F)C3=C2CC(C)(C)CC3=O)cc1 (stereo not drawn)	-8.28	0.731 µM [falling, partial curve, poor fit]	–
CC(C)Cn1c(-c2ccco2)n[nH]c1=S	15.5	0.092 µM [rising, full curve, poor fit]	–
Cc1nn(C)c(Cl)c1S(=O)(=O)N[C@@H](c1ccccc1)[C@]1(C)C[C@H]1[C@@H](C)C(=O)Nc1ccc2ccccc2c1	18.9	16.4 µM [rising, single point]	–
CCCC(=O)NC(c1ccccc1OC)c1ccc2cccnc2c1O (stereo not drawn)	-33.5	–	–
Cc1cc(NC(=O)CN2C(=O)NC(C)(CCc3ccccc3)C2=O)no1 (stereo not drawn)	-5.71	1.3 µM [falling, full curve]	–
C=CCn1cnnc1SCC(=O)Nc1cccnc1Cl	10.8	–	–
Cc1cccc2[nH]c3c(=O)n(CCN4CCNCC4)cnc3c12	-8.68	0.731 µM [rising, full curve, poor fit]	–
Cc1cccc(N2CCN(C(=O)CCC(=O)N3CC(C)Oc4ccccc43)CC2)c1C (stereo not drawn)	13.3	–	–
S=C(Nc1ccc(CN2CCCCC2)cc1)Nc1cccc(Cl)c1Cl	4.95	29.1 µM [rising, single point]	6.51 µM [rising, single point]
COc1ccc(NC(=O)NCc2cccnc2)c(OC)c1	21.8	20.6 µM [rising, partial curve]	–
CC1Nc2ccc(C(=O)NC3CCCCC3)cc2NC1=O (stereo not drawn)	–	29.1 µM [falling, single point]	–
COc1ccccc1C(=O)NCC(=O)N/N=C/c1ccc2c(c1)OCO2	13.8	–	–
CC1CC(C)(C)NC(=S)N1CCCC(=O)Nc1ccc(F)c(F)c1 (stereo not drawn)	60.2	29.1 µM [rising, single point]	16.4 µM [rising, partial curve]
Cc1cc(C)c(C(=O)CSc2nnc(-c3ccccc3Br)o2)cc1C	135	0.103 µM [rising, full curve, poor fit]	0.164 µM [rising, full curve, poor fit]
COc1cc(/C=N\NC(=O)c2ccc(-c3ccccc3)cc2)cc(OC)c1O	-68.5	–	20.6 µM [falling, single point]
C/C(=N\NC(=O)COc1ccc([N+](=O)[O-])cc1)C(C)(C)C	19.8	–	2.91 µM [rising, full curve, poor fit]
